Paper PMC11723331 (Plants, 2024)

Amino acid sequences for entries named in this document (tags omitted).
UniProt Q39588, entry or part of it: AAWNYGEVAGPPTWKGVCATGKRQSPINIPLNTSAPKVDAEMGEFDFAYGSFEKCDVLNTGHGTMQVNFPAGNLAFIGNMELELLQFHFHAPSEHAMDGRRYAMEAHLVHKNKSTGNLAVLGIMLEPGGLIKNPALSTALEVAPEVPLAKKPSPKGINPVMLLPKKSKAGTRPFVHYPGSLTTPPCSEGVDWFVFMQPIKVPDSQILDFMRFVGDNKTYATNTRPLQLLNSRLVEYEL

Target: T1, rCAH3 (Chlamydomonas reinhardtii, UniProt Q39588)
T1 construct: gene CAH3
Assay: biochemical

Compound `CC(=O)Nc1nnc(S(N)(=O)=O)s1` [AZA, acetazolamide] has an IC50 of 6.6 nM.
